Assay results from the supplement of paper PMC11006884.
This is a selection; strong and weak results do not stand in their true shares. This is a noisy data set.

Protein sequences, listed by entry. Tags and fused reporters are not part of them. Lines headed by an entry give the natural chain unless they say otherwise; changes in a name come on top.
UniProt Q5JRA6: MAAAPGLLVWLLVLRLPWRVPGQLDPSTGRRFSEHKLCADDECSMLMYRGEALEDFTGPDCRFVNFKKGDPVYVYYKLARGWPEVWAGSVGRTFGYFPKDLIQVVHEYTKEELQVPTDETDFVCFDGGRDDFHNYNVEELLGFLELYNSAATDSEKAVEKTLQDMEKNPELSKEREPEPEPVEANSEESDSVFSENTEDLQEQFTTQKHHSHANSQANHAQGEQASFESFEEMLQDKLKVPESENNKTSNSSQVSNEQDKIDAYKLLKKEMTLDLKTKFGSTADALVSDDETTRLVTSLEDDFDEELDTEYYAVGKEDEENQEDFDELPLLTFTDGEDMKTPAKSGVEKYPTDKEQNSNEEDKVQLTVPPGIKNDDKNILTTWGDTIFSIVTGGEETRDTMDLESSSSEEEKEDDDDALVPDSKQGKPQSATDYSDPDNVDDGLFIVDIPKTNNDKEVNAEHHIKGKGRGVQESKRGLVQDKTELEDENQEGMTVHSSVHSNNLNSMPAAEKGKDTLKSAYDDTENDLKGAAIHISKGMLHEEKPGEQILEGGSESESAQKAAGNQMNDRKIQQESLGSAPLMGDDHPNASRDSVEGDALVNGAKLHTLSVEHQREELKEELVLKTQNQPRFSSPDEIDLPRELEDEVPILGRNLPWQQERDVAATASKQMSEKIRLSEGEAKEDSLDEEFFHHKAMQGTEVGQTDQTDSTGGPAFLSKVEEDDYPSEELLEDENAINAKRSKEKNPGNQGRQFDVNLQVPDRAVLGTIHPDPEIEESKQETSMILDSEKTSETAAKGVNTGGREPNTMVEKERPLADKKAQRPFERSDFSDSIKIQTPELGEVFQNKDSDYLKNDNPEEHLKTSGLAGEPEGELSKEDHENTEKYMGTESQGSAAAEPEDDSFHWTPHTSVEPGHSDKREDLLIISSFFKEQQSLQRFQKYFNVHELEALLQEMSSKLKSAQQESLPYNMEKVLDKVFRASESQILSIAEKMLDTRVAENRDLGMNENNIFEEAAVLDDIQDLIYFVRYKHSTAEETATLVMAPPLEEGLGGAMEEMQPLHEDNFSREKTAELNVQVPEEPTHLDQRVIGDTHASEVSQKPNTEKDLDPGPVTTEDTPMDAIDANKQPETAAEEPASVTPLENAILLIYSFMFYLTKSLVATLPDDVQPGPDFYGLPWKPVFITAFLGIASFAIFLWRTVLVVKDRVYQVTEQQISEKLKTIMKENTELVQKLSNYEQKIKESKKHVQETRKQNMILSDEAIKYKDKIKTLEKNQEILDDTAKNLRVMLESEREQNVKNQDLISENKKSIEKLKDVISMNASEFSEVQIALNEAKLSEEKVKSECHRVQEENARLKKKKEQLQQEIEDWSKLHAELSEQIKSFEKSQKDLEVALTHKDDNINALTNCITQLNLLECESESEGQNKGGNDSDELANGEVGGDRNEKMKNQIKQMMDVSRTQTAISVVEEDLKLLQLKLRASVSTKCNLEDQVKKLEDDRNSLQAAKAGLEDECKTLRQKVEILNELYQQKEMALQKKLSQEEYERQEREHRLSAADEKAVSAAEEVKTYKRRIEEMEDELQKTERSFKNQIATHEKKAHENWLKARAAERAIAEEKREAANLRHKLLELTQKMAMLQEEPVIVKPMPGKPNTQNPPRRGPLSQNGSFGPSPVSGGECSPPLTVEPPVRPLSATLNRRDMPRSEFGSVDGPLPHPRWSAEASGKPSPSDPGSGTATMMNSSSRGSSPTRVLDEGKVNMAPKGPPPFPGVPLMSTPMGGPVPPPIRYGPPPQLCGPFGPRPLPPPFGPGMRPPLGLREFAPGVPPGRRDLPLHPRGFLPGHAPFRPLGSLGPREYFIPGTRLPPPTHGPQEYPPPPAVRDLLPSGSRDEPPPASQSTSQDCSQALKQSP
UniProt Q5BKZ1: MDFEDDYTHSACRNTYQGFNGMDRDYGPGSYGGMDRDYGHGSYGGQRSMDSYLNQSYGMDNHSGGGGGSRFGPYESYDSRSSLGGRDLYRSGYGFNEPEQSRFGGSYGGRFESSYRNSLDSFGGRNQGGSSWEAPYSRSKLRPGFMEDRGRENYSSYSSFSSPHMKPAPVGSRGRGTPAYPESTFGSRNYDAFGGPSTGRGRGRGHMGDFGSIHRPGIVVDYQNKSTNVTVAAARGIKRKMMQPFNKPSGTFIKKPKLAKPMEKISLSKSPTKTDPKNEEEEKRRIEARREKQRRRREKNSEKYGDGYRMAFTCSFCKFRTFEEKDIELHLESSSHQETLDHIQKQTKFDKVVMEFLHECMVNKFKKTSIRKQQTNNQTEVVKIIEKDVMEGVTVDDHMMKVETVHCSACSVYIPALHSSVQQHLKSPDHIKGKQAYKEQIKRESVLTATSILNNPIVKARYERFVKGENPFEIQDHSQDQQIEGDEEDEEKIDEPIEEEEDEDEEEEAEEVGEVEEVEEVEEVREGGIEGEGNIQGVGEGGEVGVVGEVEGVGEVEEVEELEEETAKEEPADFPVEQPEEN
UniProt Q5SNT2: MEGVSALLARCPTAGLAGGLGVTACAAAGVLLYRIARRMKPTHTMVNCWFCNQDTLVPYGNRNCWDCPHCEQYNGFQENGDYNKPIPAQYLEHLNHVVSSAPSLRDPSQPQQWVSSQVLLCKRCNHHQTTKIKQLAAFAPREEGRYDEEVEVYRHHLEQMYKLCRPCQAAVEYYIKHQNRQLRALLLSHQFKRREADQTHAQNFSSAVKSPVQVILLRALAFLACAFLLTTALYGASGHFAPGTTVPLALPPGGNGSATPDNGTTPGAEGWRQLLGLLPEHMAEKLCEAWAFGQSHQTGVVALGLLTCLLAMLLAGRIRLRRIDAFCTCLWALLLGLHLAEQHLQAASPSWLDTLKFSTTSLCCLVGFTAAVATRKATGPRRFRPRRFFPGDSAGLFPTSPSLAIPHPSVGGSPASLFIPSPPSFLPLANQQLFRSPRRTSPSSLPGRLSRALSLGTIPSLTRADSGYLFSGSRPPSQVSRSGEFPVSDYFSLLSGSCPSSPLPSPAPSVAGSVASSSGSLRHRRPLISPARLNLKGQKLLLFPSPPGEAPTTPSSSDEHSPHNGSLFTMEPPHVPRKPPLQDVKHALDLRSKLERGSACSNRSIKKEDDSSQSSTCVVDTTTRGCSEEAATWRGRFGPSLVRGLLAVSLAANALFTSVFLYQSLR
UniProt Q5JRX3: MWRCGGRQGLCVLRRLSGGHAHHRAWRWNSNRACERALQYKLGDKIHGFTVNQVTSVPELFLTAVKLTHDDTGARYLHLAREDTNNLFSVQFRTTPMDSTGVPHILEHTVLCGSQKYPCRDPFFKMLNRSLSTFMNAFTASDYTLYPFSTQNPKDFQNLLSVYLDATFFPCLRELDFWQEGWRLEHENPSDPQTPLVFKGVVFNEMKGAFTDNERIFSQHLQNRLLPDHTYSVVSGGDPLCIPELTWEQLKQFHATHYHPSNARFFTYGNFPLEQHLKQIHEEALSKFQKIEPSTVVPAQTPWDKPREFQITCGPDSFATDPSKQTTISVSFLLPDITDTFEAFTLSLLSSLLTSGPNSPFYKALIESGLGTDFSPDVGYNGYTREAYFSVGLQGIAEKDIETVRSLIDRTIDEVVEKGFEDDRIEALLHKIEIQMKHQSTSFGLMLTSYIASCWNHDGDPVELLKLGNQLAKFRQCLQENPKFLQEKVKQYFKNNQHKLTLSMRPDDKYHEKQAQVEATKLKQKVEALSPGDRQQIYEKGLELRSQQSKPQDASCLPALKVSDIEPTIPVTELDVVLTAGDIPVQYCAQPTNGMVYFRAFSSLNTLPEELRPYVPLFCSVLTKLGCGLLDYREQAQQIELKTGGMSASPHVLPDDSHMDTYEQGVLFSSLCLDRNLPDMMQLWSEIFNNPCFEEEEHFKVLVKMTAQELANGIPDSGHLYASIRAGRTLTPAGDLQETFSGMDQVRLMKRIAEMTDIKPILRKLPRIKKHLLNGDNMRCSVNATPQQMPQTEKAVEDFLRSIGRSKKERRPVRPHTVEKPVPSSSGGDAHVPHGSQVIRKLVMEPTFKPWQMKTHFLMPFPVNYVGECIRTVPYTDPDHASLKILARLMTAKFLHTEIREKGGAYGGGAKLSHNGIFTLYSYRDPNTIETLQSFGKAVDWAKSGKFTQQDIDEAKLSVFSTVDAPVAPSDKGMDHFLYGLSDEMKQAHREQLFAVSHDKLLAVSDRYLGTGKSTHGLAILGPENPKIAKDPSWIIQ
UniProt Q6NUN9: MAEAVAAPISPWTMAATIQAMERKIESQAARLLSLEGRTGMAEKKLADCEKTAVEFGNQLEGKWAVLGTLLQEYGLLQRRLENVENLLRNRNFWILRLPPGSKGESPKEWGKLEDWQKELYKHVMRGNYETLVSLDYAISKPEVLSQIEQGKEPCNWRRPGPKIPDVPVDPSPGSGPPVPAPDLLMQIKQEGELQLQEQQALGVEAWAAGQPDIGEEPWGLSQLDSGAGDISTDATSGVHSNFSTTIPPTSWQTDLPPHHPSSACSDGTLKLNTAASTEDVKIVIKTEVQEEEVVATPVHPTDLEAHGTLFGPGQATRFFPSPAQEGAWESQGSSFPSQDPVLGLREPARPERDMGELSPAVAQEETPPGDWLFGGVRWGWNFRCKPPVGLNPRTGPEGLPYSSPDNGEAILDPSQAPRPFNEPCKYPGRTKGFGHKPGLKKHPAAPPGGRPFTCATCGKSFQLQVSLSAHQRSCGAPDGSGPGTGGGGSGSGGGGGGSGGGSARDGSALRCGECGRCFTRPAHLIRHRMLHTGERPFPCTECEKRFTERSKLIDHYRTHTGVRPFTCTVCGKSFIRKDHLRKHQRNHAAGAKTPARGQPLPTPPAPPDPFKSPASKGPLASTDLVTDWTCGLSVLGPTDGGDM
UniProt Q6YN16: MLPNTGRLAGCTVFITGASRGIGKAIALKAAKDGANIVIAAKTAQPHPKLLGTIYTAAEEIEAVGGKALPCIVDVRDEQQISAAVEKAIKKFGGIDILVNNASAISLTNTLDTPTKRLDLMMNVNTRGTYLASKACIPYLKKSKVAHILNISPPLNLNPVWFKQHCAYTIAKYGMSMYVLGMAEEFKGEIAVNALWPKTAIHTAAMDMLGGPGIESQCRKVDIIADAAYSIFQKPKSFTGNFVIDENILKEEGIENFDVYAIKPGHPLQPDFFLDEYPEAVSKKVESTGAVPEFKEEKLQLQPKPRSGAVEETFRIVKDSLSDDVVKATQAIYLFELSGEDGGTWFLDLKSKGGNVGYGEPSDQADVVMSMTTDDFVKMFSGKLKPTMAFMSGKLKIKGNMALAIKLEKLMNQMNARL
UniProt Q6NXT1: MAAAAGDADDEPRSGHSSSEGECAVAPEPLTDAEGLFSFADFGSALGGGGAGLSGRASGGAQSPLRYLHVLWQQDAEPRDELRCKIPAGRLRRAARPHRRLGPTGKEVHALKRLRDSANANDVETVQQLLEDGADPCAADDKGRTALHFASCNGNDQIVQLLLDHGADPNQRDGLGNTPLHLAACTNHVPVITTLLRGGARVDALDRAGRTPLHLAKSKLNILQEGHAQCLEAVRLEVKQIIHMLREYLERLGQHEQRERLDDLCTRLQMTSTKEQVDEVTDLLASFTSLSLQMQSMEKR
UniProt Q5VV42: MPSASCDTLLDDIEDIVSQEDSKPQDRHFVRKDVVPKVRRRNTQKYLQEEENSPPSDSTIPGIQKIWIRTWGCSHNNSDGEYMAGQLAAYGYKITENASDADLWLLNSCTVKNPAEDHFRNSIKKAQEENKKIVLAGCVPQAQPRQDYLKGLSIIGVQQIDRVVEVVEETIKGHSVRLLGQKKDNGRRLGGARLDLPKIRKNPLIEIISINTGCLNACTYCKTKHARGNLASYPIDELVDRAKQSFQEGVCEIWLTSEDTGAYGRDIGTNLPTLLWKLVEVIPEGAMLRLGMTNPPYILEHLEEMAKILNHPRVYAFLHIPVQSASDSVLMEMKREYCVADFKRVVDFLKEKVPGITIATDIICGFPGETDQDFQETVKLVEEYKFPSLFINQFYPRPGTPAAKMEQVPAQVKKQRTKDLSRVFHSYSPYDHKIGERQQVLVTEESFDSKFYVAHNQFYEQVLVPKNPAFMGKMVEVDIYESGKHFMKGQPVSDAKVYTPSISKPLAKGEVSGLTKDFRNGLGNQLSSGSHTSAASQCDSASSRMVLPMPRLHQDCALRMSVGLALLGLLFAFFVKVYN

What follows are targets tested with COC(=O)/C=C/c1ccccc1 [methyl cinnamate] (assay: log2 ratio of iodoacetamide-alkyne labeling of the cysteine site, DMSO over compound (competition); higher = stronger covalent engagement of the cysteine by the compound, active = 1 or more). Conditions: 500 µM; treatment time 1 h; system: HEK293T cell lysate.
In short: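 For each cysteine, the log2 competition ratio is mean control-channel reporter intensity over mean compound-channel reporter intensity. HEK293T lysate (2 mg/mL) was exposed to vehicle or electrophile (500 µM, 1 h, ambient temperature), labelled with iodoacetamide alkyne (1 h), clicked to sCIP-TMT reagents, digested overnight with trypsin at 37 °C, streptavidin-enriched and analysed by Orbitrap Eclipse LC-MS/MS with FAIMS and FragPipe. Cysteines quantified in only one of three replicates, each with duplicate channels, were excluded.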

Target | log2 ratio of iodoacetamide-alkyne labeling
UniProt Q5JSZ5_C1482 | inactive: 0.161
MIA3 C1513 (UniProt Q5JRA6) | inactive: 0.636
ZNF326 C12 (UniProt Q5BKZ1) | inactive: 0.172
DHX57 C65 (UniProt Q6P158) | inactive: 0.109
AARS2 C596 (UniProt Q5JTZ9) | inactive: -0.0626
LARP1 C1054 (UniProt Q6PKG0) | inactive: 0.484
MIA3 C1486 (UniProt Q5JRA6) | inactive: 0.194
TMEM201 C626 (UniProt Q5SNT2) | inactive: 0.346
PITRM1 C313 (UniProt Q5JRX3) | inactive: 0.317
ZNF746 C425 (UniProt Q6NUN9) | inactive: 0.0575
RAB11FIP1 C1192 (UniProt Q6WKZ4) | inactive: -0.0498
HSDL2 C218 (UniProt Q6YN16) | inactive: 0.0777
PDE12 C119 (UniProt Q6L8Q7) | inactive: 0.382
ANKRD54 C185 (UniProt Q6NXT1) | inactive: -0.0655
CDKAL1 C538 (UniProt Q5VV42) | inactive: 0.24
ZC3H14 C707 (UniProt Q6PJT7) | inactive: -0.316

2 records drawn at random from the list so far, as already listed:
Target | log2 ratio of iodoacetamide-alkyne labeling
HSDL2 C218 (UniProt Q6YN16) | inactive: 0.0777
PDE12 C119 (UniProt Q6L8Q7) | inactive: 0.382
